Measurements published in the supplement of paper PMC11732987, “Enantioselective OTUD7B fragment discovery through chemoproteomics screening and high-throughput optimisation” (Communications Chemistry, 2025).
This is one part of the list. The data scatter; read single values as rough.

Protein sequences, listed by entry. Tags and fused reporters are not part of them. Lines headed by an entry give the natural chain unless they say otherwise; changes in a name come on top.
UniProt Q9P1Y6: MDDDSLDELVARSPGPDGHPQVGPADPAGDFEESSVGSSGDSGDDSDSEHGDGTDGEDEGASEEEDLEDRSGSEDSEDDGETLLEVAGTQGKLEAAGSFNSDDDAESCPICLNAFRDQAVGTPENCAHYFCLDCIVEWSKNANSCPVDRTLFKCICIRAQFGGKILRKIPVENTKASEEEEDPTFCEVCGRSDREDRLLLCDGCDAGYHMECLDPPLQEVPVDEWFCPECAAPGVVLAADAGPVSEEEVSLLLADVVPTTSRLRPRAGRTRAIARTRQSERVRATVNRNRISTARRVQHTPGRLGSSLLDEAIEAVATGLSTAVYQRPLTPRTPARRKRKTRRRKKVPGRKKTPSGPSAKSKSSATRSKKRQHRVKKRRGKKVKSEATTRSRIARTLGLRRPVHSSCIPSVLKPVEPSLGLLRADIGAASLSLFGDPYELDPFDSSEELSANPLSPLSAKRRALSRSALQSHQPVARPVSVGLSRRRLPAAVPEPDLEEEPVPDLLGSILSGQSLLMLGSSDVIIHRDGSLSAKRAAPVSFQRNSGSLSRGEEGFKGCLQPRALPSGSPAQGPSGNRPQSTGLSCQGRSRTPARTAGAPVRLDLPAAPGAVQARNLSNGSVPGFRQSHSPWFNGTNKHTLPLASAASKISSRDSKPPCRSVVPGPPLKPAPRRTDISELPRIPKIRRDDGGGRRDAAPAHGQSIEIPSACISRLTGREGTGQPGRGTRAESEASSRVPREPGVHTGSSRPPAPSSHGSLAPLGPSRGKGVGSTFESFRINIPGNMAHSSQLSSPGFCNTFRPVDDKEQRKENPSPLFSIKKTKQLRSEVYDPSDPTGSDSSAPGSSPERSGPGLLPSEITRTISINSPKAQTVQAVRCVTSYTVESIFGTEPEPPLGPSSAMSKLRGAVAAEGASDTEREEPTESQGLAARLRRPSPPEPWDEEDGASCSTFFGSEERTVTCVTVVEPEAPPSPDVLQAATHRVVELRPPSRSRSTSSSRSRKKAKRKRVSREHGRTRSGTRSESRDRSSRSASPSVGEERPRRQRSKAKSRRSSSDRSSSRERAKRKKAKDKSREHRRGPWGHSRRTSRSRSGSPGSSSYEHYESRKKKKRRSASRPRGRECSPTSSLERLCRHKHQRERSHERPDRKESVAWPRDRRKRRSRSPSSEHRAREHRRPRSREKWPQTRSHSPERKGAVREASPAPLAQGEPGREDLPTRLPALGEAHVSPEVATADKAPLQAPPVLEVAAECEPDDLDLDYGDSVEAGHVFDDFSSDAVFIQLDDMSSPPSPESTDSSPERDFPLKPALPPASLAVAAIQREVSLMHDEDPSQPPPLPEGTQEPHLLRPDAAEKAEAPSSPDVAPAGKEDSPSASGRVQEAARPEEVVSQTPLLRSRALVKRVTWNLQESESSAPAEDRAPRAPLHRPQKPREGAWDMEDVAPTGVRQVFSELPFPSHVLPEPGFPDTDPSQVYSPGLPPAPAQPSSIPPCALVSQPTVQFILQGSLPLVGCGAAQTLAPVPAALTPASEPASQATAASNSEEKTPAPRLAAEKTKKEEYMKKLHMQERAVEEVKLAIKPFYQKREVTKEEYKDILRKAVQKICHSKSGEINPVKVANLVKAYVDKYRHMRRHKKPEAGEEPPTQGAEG

Target: T1, PHRF1 C962 (UniProt Q9P1Y6)
T1 sequence (whole entry): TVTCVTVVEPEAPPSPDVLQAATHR
Experiment: log2 mean competition ratio of IA-DTB cysteine labelling (DMSO/compound) (log2 ratio); higher = stronger cysteine engagement by compound
Settings: 50 µM; treatment time: 4 h; cell line lysate: HEK293T
Method: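 IA-DTB competitive cysteine chemoproteomics in HEK293T RIPA lysate. Lysates were treated with compound 29 or 30 at 50 or 200 µM for 4 h, then IA-DTB (500 µM, 1 h), trypsin-digested, NeutrAvidin-enriched and analysed by diaPASEF. Competition ratio = intensity DMSO / intensity compound (n=4 treated, n=64 DMSO); binding: mean log2 CR ≥ 1 and p ≤ 0.05 plus QC filters. Target is the cysteine site.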

SMILES | log2 mean competition ratio
O=C(CCl)N[C@H]1CCCc2ccccc21 | 0.324
O=C(CCl)N[C@@H]1CCCc2ccccc21 | -0.0865

Same assay, conditions: 200 µM; treatment time: 4 h; cell line lysate: HEK293T

SMILES | log2 mean competition ratio
O=C(CCl)N[C@H]1CCCc2ccccc21 | 0.0524
O=C(CCl)N[C@@H]1CCCc2ccccc21 | 0.757
